Data reported in PMC8160817.
Results are given in words; binding and its absence hold for the method and conditions named. In cells and extracts the contact can be indirect. Some results given as binding are weak or reduced against the parent protein; the word gives no strength.

The chains behind the UniProt entries cited, without tags or fusion partners.
UniProt Q13123: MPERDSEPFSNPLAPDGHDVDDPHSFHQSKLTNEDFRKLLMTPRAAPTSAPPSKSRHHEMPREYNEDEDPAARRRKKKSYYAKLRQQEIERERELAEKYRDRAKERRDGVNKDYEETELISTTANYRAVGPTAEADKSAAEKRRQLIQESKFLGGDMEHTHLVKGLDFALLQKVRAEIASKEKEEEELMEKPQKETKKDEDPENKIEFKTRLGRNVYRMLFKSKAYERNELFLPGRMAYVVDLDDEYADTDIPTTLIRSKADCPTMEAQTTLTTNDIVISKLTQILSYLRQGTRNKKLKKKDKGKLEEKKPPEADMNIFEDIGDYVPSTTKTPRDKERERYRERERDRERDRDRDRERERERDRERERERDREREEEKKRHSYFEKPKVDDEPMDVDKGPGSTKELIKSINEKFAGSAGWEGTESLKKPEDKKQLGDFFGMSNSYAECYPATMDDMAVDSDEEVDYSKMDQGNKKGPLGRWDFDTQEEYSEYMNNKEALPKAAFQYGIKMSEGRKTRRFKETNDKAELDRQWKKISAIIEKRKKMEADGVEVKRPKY

Target: IK (human (endogenous in Ishikawa)) (UniProt Q13123)
Experiment: co-IP; reciprocal IP followed by Western blotting, endogenous proteins of Ishikawa cells after cisplatin treatment; IP buffer NaCl 125 mM, HEPES 25 mM, EDTA 2.5 mM, 0.1% NP-40; overnight at 4 °C with protein A/G agarose beads

binding: binds
Substance: Ku80 (X-Ray Repair Cross Complementing 5, XRCC5) (from UniProt P13010 1-732)
